For assay [1], the target named is SerRS-TAP (Arabidopsis thaliana seryl-tRNA synthetase) (Arabidopsis thaliana). Briefly: affinity purification with mass spectrometry; tandem affinity purification (IgG-Sepharose, AcTEV elution, calmodulin-agarose) of TAP-tagged bait from crude extracts of Arabidopsis cell suspension (three replicates) or 12-day old seedlings; 150 mM NaCl, 0.1% Nonidet P-40, 4°C; LC-MS/MS; SerRS-TAP as control bait.

For assay [2], the target named is TaMAB2-TAP (Triticum aestivum (wheat)). Described as above.

No constants are given. Whether binding was seen depends on the method and setting. In cells and extracts the contact can be indirect. These calls come from enrichment with a bait or labelling near it, and not all partners need be listed. A no says only that the protein was not detected with the bait.

B1: Eukaryotic translation initiation factor 3 subunit A (protein, UniProt Q9LD55 1-987)
chain: MANFAKPENALKRADELINVGQKQDALQALHDLITSKRYRAWQKPLEKIMFKYLDLCVDLKRGRFAKDGLIQYRIVCQQVNVSSLEEVIKHFLHLATDKAEQARSQADALEEALDVDDLEADRKPEDLQLSIVSGEKGKDRSDRELVTPWFKFLWETYRTVLEILRNNSKLEALYAMTAHKAFQFCKQYKRTTEFRRLCEIIRNHLANLNKYRDQRDRPDLSAPESLQLYLDTRFDQLKVATELGLWQEAFRSVEDIYGLMCMVKKTPKSSLLMVYYSKLTEIFWISSSHLYHAYAWFKLFSLQKNFNKNLSQKDLQLIASSVVLAALSIPPFDRAQSASHMELENEKERNLRMANLIGFNLEPKFEGKDMLSRSALLSELVSKGVLSCASQEVKDLFHVLEHEFHPLDLGSKIQPLLEKISKSGGKLSSAPSLPEVQLSQYVPSLEKLATLRLLQQVSKIYQTIRIESLSQLVPFFQFSEVEKISVDAVKNNFVAMKVDHMKGVVIFGNLGIESDGLRDHLAVFAESLSKVRAMLYPVPSKASKLAGVIPNLADTVEKEHKRLLARKSIIEKRKEDQERQQLEMEREEEQKRLKLQKLTEEAEQKRLAAELAERRKQRILREIEEKELEEAQALLEETEKRMKKGKKKPLLDGEKVTKQSVKERALTEQLKERQEMEKKLQKLAKTMDYLERAKREEAAPLIEAAYQRRLVEEREFYEREQQREVELSKERHESDLKEKNRLSRMLGNKEIFQAQVISRRQAEFDRIRTEREERISKIIREKKQERDIKRKQIYYLKIEEERIRKLQEEEEARKQEEAERLKKVEAERKANLDKAFEKQRQREIELEEKSRREREELLRGTNAPPARLAEPTVTPVGTTAPAAAAAAAGAPAAPYVPKWKRQTTEVSGPSAPTSSETDRRSNRGPPPGDDHWGSNRGAAQNTDRWTSNRERSGPPAEGGDRWGSGPRGSDDRRSTFGSSRPRPTQR
In the case of B1, the binding entry in assay [1] is “no binding”; in assay [2], “binds”.

B2: AtCul3a, endogenous (protein, UniProt Q9ZVH4 1-732)
chain: MSNQKKRNFQIEAFKHRVVVDPKYADKTWQILERAIHQIYNQDASGLSFEELYRNAYNMVLHKFGEKLYTGFIATMTSHLKEKSKLIEAAQGGSFLEELNKKWNEHNKALEMIRDILMYMDRTYIESTKKTHVHPMGLNLWRDNVVHFTKIHTRLLNTLLDLVQKERIGEVIDRGLMRNVIKMFMDLGESVYQEDFEKPFLDASSEFYKVESQEFIESCDCGDYLKKSEKRLTEEIERVAHYLDAKSEEKITSVVEKEMIANHMQRLVHMENSGLVNMLLNDKYEDLGRMYNLFRRVTNGLVTVRDVMTSHLREMGKQLVTDPEKSKDPVEFVQRLLDERDKYDKIINTAFGNDKTFQNALNSSFEYFINLNARSPEFISLFVDDKLRKGLKGITDVDVEVILDKVMMLFRYLQEKDVFEKYYKQHLAKRLLSGKTVSDDAERSLIVKLKTECGYQFTSKLEGMFTDMKTSEDTMRGFYGSHPELSEGPTLIVQVLTTGSWPTQPAVPCNLPAEVSVLCEKFRSYYLGTHTGRRLSWQTNMGTADIKAIFGKGQKHELNVSTFQMCVLMLFNNSDRLSYKEIEQATEIPAADLKRCLQSLACVKGKNVIKKEPMSKDIGEEDLFVVNDKFTSKFYKVKIGTVVAQKETEPEKQETRQRVEEDRKPQIEAAIVRIMKSRKILDHNNIIAEVTKQLQPRFLANPTEIKKRIESLIERDFLERDSTDRKLYRYLA
B2: the binding entry in assay [2] is on record as “no binding”.

B3: Eukaryotic translation initiation factor 3 subunit G (protein, UniProt F4J6A1 1-321)
chain: MTIDSQQKTSKFRWGEMDEDEDLDFLLPPKQVIGPDENGLKTTIEYKFNDEENKVKITTRTRVRKLASARLNKRAMERRNWPKFGDAANEEAGSHLTMVSTEEILLERPRAPGDQLANHMLASIPEYELKCALTFVAANCTKADESKATGDGLSQLGKGGAVLMVCRICHKKGDHWTSKCPYKDLAAPTDVFIDKPPTGESSTMSAAPGTGKAAYVPPSMRAGADRSAVGSDMRRRNDENSVRVTNLSEDTREPDLMELFHPFGAVTRVYVAIDQKTGVSRGFGFVNFVSREDAQRAINKLNGYGYDNLILRVEWATPRPT
B3: the binding entry in assay [1] is “no binding”; in assay [2] it was “binds”.

B4: 30S ribosomal protein S9 (protein, UniProt Q9XJ27 53-208)
chain: TVSAPPEEEEIVELKKYVKSRLPGGFAAQKIIGTGRRKCAIARVVLQEGTGKVIINYRDAKEYLQGNPLWLQYVKVPLVTLGYENSYDIFVKAHGGGLSGQAQAITLGVARALLKVSADHRSPLKKEGLLTRDARVVERKKAGLKKARKAPQFSKR
B4: in assay [2], the binding result is listed as “binds”.

B5: AtCul3b, endogenous (protein, UniProt Q9C9L0 1-732)
chain: MSNQKKRNFQIEAFKQRVVVDPKYADKTWKILEHAIHEIYNHNASGLSFEELYRNAYNMVLHKYGDKLYTGLVTTMTFHLKEICKSIEEAQGGAFLELLNRKWNDHNKALQMIRDILMYMDRTYVSTTKKTHVHELGLHLWRDNVVYSSKIQTRLLNTLLDLVHKERTGEVIDRVLMRNVIKMFMDLGESVYQDDFEKPFLEASAEFYKVESMEFIESCDCGEYLKKAEKPLVEEVERVVNYLDAKSEAKITSVVEREMIANHVQRLVHMENSGLVNMLLNDKYEDMGRMYSLFRRVANGLVTVRDVMTLHLREMGKQLVTDPEKSKDPVEFVQRLLDERDKYDRIINMAFNNDKTFQNALNSSFEYFVNLNTRSPEFISLFVDDKLRKGLKGVGEEDVDLILDKVMMLFRYLQEKDVFEKYYKQHLAKRLLSGKTVSDDAERNLIVKLKTECGYQFTSKLEGMFTDMKTSHDTLLGFYNSHPELSEGPTLVVQVLTTGSWPTQPTIQCNLPAEVSVLCEKFRSYYLGTHTGRRLSWQTNMGTADIKAVFGKGQKHELNVSTFQMCVLMLFNNSDRLSYKEIEQATEIPTPDLKRCLQSMACVKGKNVLRKEPMSKEIAEEDWFVVNDRFASKFYKVKIGTVVAQKETEPEKQETRQRVEEDRKPQIEAAIVRIMKSRRVLDHNNIIAEVTKQLQTRFLANPTEIKKRIESLIERDFLERDNTDRKLYRYLA
As to B5, the binding result in assay [2] is given as “no binding”.

These data come from article PMC6883508.
